Results are given in words; binding and its absence hold for the method and conditions named. Binding seen in cells or lysates may run through a third protein. For part of these data: Binding can be weak; no strength is given.

Assay [1] concerns the target DNAJB12-short tagged with FLAG (human). Kind of assay: co-IP; reverse experiment (Supplementary Fig. 6q, r): DNAJB12-short with DNAJB14-FL in cells; which of the two was the FLAG-tagged bait is not given.
For assay [2], the target named is DNAJB14-HPDmut1, FLAG-tagged (human) (UniProt Q8TBM8). Kind of assay: co-IP; HEK293T cells co-transfected with FLAG-tagged DNAJB14 forms and DNAJB12-FL-mOrange; lysis in 50 mM HEPES pH 7.9, 0.5% Triton X-100, 5% glycerol, 150 mM NaCl, 2 mM EDTA; anti-FLAG M2 beads 3 h at 4 °C, 7 washes; blot with anti-RFP for mOrange, normalised to the FLAG band.
Assay [3] deals with DNAJB14-short, FLAG-tagged (human). The description is as above.

B1: DNAJB14-FL (partner of DNAJB12-short in the reverse co-IP of Supplementary Fig. 6q, r) (protein, UniProt Q8TBM8-1 1-379)
chain: MEGNRDEAEKCVEIAREALNAGNREKAQRFLQKAEKLYPLPSARALLEIIMKNGSTAGNSPHCRKPSGSGDQSKPNCTKDSTSGSGEGGKGYTKDQVDGVLSINKCKNYYEVLGVTKDAGDEDLKKAYRKLALKFHPDKNHAPGATDAFKKIGNAYAVLSNPEKRKQYDLTGNEEQACNHQNNGRFNFHRGCEADITPEDLFNIFFGGGFPSGSVHSFSNGRAGYSQQHQHRHSGHEREEERGDGGFSVFIQLMPIIVLILVSLLSQLMVSNPPYSLYPRSGTGQTIKMQTENLGVVYYVNKDFKNEYKGMLLQKVEKSVEEDYVTNIRNNCWKERQQKTDMQYAAKVYRDDRLRRKADALSMDNCKELERLTSLYKGG
Take B1: in assay [1], the binding entry is reported as “no binding”.

B2: DNAJB12-FL-mOrange (protein, UniProt Q9NXW2-1 1-375)
chain: MESNKDEAERCISIALKAIQSNQPDRALRFLEKAQRLYPTPRVRALIESLNQKPQTAGDQPPPTDTTHATHRKAGGTDAPSANGEAGGESTKGYTAEQVAAVKRVKQCKDYYEILGVSRGASDEDLKKAYRRLALKFHPDKNHAPGATEAFKAIGTAYAVLSNPEKRKQYDQFGDDKSQAARHGHGHGDFHRGFEADISPEDLFNMFFGGGFPSSNVHVYSNGRMRYTYQQRQDRRDNQGDGGLGVFVQLMPILILILVSALSQLMVSSPPYSLSPRPSVGHIHRRVTDHLGVVYYVGDTFSEEYTGSSLKTVERNVEDDYIANLRNNCWKEKQQKEGLLYRARYFGDTDMYHRAQKMGTPSCSRLSEVQASLHG
With B2, the binding result in assay [2] was “binds”; in assay [3], “no binding”.
